According to publication PMC3386252:
No constants are given. Whether binding was seen depends on the method and setting. Binding seen in cells or lysates may run through a third protein. Some results given as binding are weak or reduced against the parent protein; the word gives no strength.

The chains behind the UniProt entries cited, without tags or fusion partners.
UniProt O43524: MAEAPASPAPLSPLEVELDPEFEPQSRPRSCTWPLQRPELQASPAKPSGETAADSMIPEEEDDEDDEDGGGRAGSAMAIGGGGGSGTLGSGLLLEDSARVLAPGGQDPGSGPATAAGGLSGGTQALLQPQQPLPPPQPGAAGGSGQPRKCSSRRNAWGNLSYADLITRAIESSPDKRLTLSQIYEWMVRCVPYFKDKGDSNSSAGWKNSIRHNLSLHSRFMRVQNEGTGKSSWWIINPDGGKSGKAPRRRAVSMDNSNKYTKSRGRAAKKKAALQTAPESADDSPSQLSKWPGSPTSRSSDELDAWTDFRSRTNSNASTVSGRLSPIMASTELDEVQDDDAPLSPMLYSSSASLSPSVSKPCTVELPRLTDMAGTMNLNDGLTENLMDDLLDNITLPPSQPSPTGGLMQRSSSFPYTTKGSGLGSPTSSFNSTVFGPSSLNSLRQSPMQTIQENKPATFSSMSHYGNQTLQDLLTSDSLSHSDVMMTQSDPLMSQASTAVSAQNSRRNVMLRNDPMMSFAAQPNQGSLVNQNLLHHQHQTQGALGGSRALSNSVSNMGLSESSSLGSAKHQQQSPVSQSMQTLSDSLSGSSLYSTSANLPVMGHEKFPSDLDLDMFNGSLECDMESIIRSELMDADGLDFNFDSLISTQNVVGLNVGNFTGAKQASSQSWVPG
UniProt P35638: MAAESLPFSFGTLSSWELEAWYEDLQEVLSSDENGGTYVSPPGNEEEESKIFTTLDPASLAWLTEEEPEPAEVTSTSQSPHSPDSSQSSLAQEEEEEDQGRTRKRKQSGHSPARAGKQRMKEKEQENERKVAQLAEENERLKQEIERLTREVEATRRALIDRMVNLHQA

Target: FOXO3a (forkhead box, class O, 3a) (human (endogenous in SH-SY5Y)) (UniProt O43524)
Assay: co-IP; Pierce Co-Immunoprecipitation Kit; 200 ug pre-cleared lysate of untreated or tunicamycin (1 uM) treated SH-SY5Y cells on 1 ug FoxO3a antibody covalently linked to amine-active resin, overnight at 4°C; control resin as negative control; western blot for CHOP

binding: binds
Substance: CHOP (C/EBP homologous protein) (from UniProt P35638 1-169)
